# Primary screen of a compound library

Sequences of proteins named here, by UniProt entry; tags and fusion partners are left off.
UniProt E9BF75, entry or part of it: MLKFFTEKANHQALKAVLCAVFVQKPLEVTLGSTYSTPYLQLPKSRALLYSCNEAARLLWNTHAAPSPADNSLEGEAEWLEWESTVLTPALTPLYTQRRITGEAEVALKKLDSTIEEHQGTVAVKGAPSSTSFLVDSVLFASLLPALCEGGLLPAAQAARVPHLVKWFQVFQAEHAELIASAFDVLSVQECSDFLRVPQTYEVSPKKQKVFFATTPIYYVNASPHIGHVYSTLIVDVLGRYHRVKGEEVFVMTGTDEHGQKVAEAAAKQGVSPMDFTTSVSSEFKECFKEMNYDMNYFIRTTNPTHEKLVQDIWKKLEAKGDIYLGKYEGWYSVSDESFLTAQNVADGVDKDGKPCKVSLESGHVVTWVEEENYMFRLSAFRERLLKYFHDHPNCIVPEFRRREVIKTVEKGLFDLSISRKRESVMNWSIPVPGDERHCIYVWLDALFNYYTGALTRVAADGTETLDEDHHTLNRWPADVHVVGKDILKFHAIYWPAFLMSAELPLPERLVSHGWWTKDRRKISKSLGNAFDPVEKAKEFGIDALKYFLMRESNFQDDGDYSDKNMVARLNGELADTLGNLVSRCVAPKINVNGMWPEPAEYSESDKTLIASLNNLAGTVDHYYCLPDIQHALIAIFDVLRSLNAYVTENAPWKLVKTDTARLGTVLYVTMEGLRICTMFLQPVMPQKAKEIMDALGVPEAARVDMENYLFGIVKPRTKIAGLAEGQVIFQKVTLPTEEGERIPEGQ

Mtb heat-shock: 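Assay on Mycobacterium tuberculosis, filed only as a heat shock assay from Cornell; the read-out is not stated. The concentration is filed as 10 mM, unlikely as a test dose, so the dose is not known. Direction is inferred from retests: higher values go with stronger inhibition. Of about 69,000 compounds tested this way, about 930 (1.4%) reached 50% or more in at least one test.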
LdMetRS: 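Methionyl-tRNA synthetase (putative), Leishmania donovani (UniProt E9BF75). Primary screen of methionyl-tRNA synthetase; the read-out is not stated. The test concentration is not given. The values are filed as inhibition. Size under these conditions: about 68,000 compounds, about 24 of them at 50% or above in at least one test.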
Mtb growth Cornell: 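Whole-cell assay for inhibitors of Mycobacterium tuberculosis growth, labelled Cornell in the record; the read-out is not stated. The concentration is filed as 10 mM, unlikely as a test dose, so the dose is not known. The record gives no direction; compounds strong in two other growth screens of this library score well above the rest, so higher reads as stronger inhibition. About 53,000 compounds were tested under these conditions; 1.7% (about 900) showed 50% or more at least once.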

Results are percentages, as filed. The record does not define 0% and 100%; most values in the screen are far below 50% and negative numbers occur (in some assays of this library far below -100). Compounds were drawn at random from those tested, without regard to their results.

Result for N#Cc1ccc(N2CCC3(CCC(=O)N3Cc3cccnc3)CC2)nc1.O=C(O)C(F)(F)F.O=C(O)C(F)(F)F was Mtb heat-shock: 16.15%; Mtb growth Cornell: -13.59%. O=C(Cc1ccsc1)N1CCC(O)(CN2CCc3ccccc3C2)C1 (stereo not shown) read Mtb heat-shock: -12.42%; LdMetRS: 12.47%. CN(CCN1CCN(c2ccccc2)CC1)C(=O)Nc1ccncc1 read Mtb heat-shock: -5.597%; LdMetRS: -1.63%; Mtb growth Cornell: -3.932%. c1csc(CN2CCc3nnc(COc4cncnc4)n3CC2)c1 gave LdMetRS: 2.614%. With O=C(CCNCC(F)(F)F)N1CCC(Nc2cccnn2)CC1 the screen gave Mtb heat-shock: -22.26%; LdMetRS: 2.362%; Mtb growth Cornell: -33.15%. Result for COCCC(=O)N1CC[C@@H]2O[C@@H](C)C[C@H]2C1 was LdMetRS: 17.77%. For Cc1ccc(C(=O)N2C[C@H]3CCC[C@@]3(COCc3ccncc3)C2)cn1 the result was LdMetRS: 10.64%. Cc1nc(CN2C(=O)CC[C@@H]3[C@H]2CCN3C(=O)c2ccno2)cs1 gave LdMetRS: 15.56%.

Cn1cnc2cc(C(=O)NS(=O)(=O)c3ccccc3Cl)ccc21 read Mtb heat-shock: -16.99%; LdMetRS: 16.25%; Mtb growth Cornell: 19.18%. Result for CS(=O)(=O)N1CCOCC2(CN(Cc3ccco3)CCO2)C1 (stereo not shown) was LdMetRS: 16.5%. CCC1(CC)CC(=O)N(CC(O)c2ccc(Cl)cc2)C1=O (stereo not shown) gave Mtb heat-shock: -4.316%; LdMetRS: 11.92%; Mtb growth Cornell: -8.74%. CCc1ccc(C(COC)NC(=O)c2ccc(F)c(NC(C)=O)c2)o1 (stereo not shown) gave Mtb heat-shock: -3.059%; LdMetRS: 8.189%; Mtb growth Cornell: -34.26%. Cn1cc(CNC2CC3(CCN(CC4CC4)CC3)c3ccccc32)cn1.O=C(O)C(F)(F)F.O=C(O)C(F)(F)F.O=C(O)C(F)(F)F (stereo not shown) gave Mtb heat-shock: -10.4%; Mtb growth Cornell: 19%. Result for COc1ccc(CC(=O)N2CCN(c3nccn3C)CC2)cc1.Cl was Mtb heat-shock: 6.481%. COCCC(=O)N1CCC(Nc2ncc(Cl)cn2)CC1 read Mtb heat-shock: 10.27%; LdMetRS: 12.9%; Mtb growth Cornell: 33.33%. For Cc1n[nH]c(C)c1-c1cnc(CC2CCN(C)C2)cn1 (stereo not shown) the result was Mtb heat-shock: -6.263%; LdMetRS: 10.8%.

For Cc1cnn(CCC(=O)NCc2ccc(N(C)C)c(C)c2)c1 the result was Mtb heat-shock: -14.09%; LdMetRS: 4.965%; Mtb growth Cornell: 2.347%. O=C(O)C(F)(F)F.[H][C@]12CN(Cc3ccc(C)cc3)C[C@@]1([H])S(=O)(=O)CC[C@@H]2C(=O)NCC(C)C read Mtb heat-shock: -45.87%. With COc1ccc(CN2CCCn3cnc(COC(C)C)c3C2)cc1 the screen gave LdMetRS: 7.937%. For O=C(O)c1cc2c(nc1-c1cncnc1)CCN(C1CCOC1)CC2 (stereo not shown) the result was LdMetRS: -2.128%. CCN1CCN(C(=O)CCn2cccc2)CC1 gave Mtb heat-shock: -25.32%; LdMetRS: 20.41%; Mtb growth Cornell: 25.26%. NC(=O)Cn1ccnc1C1CCCN(Cc2ccccc2OC(F)F)C1 (stereo not shown) read Mtb heat-shock: -8.752%; LdMetRS: 8.982%; Mtb growth Cornell: 7.011%. With Cc1cc(F)c2c(c1)CCCN2C(=O)c1cncc(Br)c1 the screen gave Mtb heat-shock: -10.1%; LdMetRS: 12.5%; Mtb growth Cornell: 13.08%. Result for CCc1nccc(CN2CCCC(CNC(=O)c3occc3C)C2)n1 (stereo not shown) was Mtb heat-shock: 9.062%; LdMetRS: 12.04%; Mtb growth Cornell: 19.93%.

From ChEMBL document CHEMBL3988442, “University of Dundee, Small-Polar-MMV Screening Library” (2021).